Results are given in words; binding and its absence hold for the method and conditions named. In cells and extracts the contact can be indirect.
Legend:
[1] = target: full-length EGFR, COOH-terminal HA-6His-tagged (human) (UniProt P00533); test: co-IP; co-transfected HEK293T cells (Fig. 1A also A549), serum free condition; lysates (Fig. 3D also culture media) immunoprecipitated with anti-HA tag agarose beads; Western blot for Flag-tagged KRT19 forms
[2] = target: full-length MET, COOH-terminal HA-6His-tagged (human) (UniProt P08581); test: as above

Sequences of proteins named here, by UniProt entry; tags and fusion partners are left off. Residues count along the entry.
UniProt P08581, residues 25-1390: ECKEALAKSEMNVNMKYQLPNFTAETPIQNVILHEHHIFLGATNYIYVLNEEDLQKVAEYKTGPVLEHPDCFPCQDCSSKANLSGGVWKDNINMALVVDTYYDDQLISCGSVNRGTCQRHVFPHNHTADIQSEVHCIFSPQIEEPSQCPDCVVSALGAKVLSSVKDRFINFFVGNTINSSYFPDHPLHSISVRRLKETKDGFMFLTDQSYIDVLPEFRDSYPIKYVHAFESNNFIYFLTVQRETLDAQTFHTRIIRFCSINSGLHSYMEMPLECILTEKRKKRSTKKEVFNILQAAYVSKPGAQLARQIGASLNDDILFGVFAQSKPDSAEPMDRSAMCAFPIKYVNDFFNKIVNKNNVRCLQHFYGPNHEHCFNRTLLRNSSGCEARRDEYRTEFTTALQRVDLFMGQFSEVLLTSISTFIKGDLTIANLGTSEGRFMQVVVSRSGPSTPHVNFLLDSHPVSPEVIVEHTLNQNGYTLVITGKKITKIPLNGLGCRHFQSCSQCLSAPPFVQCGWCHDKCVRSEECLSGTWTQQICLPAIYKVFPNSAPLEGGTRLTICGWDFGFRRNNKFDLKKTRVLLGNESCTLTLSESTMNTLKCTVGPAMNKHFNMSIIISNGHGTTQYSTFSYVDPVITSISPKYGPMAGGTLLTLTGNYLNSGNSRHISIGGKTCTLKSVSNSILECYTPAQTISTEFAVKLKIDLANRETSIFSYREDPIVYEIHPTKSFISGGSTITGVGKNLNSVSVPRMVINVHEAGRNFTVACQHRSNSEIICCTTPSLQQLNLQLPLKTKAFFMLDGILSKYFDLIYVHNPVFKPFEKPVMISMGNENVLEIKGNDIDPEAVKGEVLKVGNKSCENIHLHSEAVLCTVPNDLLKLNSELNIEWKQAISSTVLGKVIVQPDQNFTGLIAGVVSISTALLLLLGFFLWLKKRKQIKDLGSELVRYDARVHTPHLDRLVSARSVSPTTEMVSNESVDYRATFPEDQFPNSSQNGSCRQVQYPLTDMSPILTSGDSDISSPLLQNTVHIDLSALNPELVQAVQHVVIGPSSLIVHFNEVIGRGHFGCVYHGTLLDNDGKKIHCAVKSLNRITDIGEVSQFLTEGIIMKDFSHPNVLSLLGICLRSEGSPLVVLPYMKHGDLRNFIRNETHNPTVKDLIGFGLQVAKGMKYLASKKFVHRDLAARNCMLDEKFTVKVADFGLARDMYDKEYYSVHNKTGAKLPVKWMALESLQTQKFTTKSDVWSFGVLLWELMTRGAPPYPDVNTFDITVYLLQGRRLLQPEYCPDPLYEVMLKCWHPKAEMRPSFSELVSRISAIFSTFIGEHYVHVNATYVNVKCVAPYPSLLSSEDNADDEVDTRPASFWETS
UniProt P08727: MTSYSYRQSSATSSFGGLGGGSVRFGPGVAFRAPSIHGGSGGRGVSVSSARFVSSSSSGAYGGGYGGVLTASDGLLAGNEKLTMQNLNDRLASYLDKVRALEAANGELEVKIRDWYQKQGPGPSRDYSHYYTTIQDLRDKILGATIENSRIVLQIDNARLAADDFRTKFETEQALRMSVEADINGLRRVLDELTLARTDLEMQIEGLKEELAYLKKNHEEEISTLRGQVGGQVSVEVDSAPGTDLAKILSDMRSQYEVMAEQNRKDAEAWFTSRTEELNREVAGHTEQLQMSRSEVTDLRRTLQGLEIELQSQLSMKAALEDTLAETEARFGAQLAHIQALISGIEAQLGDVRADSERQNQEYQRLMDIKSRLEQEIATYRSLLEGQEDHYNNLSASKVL

For “full-length KRT19, COOH-terminal Flag-6His-tagged (from UniProt P08727 1-400)”, the binding [1] was “no binding” and the binding [2] was “no binding”.

Reference: paper PMC5180104, “Interaction of cytokeratin 19 head domain and HER2 in the cytoplasm leads to activation of HER2-Erk pathway” (Scientific Reports, 2016)
